Drawing on patent US7235531B2 (Takeda Pharmaceutical Company, priority 1999, dated 2007), this text covers isolated mass for one substance.

The nature of the data set: Boc solid-phase peptide synthesis; p-methyl BHA resin; NMP-HOBt. Particulars: whole synthesis, scale 0.14 g resin cleaved (0.5 mmol synthesis).

No end group written: not given here.

TGKASQFFGLM-NH2 returned an isolated mass of 26 mg.
